For at least one compound, name, drawing or mass did not settle the structure.
Assays:
gastric acid secretion [1] = test: 13C calcium carbonate breath test, Example 2 (initial 2 g, then 500 mg every 5 minutes over 3 hours); conditions: one human volunteer; 20 mg omeprazole daily for one week; FIG. 5
gastric acid secretion [2] = test: 13C calcium carbonate breath test, Example 1 (250 mg every 15 minutes over 4 hours)

With COc1ccc2[nH]c([S+]([O-])Cc3ncc(C)c(OC)c3C)nc2c1 (stereo not drawn) [omeprazole] the “amount of 13C labelled carbon dioxide in exhaled air as compared with the original experiments” value (gastric acid secretion [1]) was “substantially reduced”, the “amount of 13C labelled carbon dioxide in exhaled air as compared with the original experiments” value (gastric acid secretion [2]; one human volunteer, omeprazole 20 mg daily for two weeks, experiment repeated twice, FIG. 2) was “substantially reduced” and the “acid suppression with 40 mg versus 20 mg” value (gastric acid secretion [2]; same subject, omeprazole 40 mg daily compared with 20 mg daily) was “does not confer an advantage”.

Reference: patent US20080208071A1, “Measurement of Gastric Acid Secretion” (THE LEEDS TEACHING HOSPITALS NHS TRUST, priority 2005, published 2008)
